The target of the test is BIR repeat containing ubiquitin-conjugating enzyme (mouse (endogenous in HT22)) (UniProt O88738). Nature of the test: co-IP; HT22 cell lysate (500 ug) incubated with antibody and Dynabeads Protein G at 4 °C; IgG as negative control; Western blot. On the technique in general: Immunoblotting shows a protein as a band on a membrane.

The chains behind the UniProt entries cited, without tags or fusion partners.
UniProt O88738: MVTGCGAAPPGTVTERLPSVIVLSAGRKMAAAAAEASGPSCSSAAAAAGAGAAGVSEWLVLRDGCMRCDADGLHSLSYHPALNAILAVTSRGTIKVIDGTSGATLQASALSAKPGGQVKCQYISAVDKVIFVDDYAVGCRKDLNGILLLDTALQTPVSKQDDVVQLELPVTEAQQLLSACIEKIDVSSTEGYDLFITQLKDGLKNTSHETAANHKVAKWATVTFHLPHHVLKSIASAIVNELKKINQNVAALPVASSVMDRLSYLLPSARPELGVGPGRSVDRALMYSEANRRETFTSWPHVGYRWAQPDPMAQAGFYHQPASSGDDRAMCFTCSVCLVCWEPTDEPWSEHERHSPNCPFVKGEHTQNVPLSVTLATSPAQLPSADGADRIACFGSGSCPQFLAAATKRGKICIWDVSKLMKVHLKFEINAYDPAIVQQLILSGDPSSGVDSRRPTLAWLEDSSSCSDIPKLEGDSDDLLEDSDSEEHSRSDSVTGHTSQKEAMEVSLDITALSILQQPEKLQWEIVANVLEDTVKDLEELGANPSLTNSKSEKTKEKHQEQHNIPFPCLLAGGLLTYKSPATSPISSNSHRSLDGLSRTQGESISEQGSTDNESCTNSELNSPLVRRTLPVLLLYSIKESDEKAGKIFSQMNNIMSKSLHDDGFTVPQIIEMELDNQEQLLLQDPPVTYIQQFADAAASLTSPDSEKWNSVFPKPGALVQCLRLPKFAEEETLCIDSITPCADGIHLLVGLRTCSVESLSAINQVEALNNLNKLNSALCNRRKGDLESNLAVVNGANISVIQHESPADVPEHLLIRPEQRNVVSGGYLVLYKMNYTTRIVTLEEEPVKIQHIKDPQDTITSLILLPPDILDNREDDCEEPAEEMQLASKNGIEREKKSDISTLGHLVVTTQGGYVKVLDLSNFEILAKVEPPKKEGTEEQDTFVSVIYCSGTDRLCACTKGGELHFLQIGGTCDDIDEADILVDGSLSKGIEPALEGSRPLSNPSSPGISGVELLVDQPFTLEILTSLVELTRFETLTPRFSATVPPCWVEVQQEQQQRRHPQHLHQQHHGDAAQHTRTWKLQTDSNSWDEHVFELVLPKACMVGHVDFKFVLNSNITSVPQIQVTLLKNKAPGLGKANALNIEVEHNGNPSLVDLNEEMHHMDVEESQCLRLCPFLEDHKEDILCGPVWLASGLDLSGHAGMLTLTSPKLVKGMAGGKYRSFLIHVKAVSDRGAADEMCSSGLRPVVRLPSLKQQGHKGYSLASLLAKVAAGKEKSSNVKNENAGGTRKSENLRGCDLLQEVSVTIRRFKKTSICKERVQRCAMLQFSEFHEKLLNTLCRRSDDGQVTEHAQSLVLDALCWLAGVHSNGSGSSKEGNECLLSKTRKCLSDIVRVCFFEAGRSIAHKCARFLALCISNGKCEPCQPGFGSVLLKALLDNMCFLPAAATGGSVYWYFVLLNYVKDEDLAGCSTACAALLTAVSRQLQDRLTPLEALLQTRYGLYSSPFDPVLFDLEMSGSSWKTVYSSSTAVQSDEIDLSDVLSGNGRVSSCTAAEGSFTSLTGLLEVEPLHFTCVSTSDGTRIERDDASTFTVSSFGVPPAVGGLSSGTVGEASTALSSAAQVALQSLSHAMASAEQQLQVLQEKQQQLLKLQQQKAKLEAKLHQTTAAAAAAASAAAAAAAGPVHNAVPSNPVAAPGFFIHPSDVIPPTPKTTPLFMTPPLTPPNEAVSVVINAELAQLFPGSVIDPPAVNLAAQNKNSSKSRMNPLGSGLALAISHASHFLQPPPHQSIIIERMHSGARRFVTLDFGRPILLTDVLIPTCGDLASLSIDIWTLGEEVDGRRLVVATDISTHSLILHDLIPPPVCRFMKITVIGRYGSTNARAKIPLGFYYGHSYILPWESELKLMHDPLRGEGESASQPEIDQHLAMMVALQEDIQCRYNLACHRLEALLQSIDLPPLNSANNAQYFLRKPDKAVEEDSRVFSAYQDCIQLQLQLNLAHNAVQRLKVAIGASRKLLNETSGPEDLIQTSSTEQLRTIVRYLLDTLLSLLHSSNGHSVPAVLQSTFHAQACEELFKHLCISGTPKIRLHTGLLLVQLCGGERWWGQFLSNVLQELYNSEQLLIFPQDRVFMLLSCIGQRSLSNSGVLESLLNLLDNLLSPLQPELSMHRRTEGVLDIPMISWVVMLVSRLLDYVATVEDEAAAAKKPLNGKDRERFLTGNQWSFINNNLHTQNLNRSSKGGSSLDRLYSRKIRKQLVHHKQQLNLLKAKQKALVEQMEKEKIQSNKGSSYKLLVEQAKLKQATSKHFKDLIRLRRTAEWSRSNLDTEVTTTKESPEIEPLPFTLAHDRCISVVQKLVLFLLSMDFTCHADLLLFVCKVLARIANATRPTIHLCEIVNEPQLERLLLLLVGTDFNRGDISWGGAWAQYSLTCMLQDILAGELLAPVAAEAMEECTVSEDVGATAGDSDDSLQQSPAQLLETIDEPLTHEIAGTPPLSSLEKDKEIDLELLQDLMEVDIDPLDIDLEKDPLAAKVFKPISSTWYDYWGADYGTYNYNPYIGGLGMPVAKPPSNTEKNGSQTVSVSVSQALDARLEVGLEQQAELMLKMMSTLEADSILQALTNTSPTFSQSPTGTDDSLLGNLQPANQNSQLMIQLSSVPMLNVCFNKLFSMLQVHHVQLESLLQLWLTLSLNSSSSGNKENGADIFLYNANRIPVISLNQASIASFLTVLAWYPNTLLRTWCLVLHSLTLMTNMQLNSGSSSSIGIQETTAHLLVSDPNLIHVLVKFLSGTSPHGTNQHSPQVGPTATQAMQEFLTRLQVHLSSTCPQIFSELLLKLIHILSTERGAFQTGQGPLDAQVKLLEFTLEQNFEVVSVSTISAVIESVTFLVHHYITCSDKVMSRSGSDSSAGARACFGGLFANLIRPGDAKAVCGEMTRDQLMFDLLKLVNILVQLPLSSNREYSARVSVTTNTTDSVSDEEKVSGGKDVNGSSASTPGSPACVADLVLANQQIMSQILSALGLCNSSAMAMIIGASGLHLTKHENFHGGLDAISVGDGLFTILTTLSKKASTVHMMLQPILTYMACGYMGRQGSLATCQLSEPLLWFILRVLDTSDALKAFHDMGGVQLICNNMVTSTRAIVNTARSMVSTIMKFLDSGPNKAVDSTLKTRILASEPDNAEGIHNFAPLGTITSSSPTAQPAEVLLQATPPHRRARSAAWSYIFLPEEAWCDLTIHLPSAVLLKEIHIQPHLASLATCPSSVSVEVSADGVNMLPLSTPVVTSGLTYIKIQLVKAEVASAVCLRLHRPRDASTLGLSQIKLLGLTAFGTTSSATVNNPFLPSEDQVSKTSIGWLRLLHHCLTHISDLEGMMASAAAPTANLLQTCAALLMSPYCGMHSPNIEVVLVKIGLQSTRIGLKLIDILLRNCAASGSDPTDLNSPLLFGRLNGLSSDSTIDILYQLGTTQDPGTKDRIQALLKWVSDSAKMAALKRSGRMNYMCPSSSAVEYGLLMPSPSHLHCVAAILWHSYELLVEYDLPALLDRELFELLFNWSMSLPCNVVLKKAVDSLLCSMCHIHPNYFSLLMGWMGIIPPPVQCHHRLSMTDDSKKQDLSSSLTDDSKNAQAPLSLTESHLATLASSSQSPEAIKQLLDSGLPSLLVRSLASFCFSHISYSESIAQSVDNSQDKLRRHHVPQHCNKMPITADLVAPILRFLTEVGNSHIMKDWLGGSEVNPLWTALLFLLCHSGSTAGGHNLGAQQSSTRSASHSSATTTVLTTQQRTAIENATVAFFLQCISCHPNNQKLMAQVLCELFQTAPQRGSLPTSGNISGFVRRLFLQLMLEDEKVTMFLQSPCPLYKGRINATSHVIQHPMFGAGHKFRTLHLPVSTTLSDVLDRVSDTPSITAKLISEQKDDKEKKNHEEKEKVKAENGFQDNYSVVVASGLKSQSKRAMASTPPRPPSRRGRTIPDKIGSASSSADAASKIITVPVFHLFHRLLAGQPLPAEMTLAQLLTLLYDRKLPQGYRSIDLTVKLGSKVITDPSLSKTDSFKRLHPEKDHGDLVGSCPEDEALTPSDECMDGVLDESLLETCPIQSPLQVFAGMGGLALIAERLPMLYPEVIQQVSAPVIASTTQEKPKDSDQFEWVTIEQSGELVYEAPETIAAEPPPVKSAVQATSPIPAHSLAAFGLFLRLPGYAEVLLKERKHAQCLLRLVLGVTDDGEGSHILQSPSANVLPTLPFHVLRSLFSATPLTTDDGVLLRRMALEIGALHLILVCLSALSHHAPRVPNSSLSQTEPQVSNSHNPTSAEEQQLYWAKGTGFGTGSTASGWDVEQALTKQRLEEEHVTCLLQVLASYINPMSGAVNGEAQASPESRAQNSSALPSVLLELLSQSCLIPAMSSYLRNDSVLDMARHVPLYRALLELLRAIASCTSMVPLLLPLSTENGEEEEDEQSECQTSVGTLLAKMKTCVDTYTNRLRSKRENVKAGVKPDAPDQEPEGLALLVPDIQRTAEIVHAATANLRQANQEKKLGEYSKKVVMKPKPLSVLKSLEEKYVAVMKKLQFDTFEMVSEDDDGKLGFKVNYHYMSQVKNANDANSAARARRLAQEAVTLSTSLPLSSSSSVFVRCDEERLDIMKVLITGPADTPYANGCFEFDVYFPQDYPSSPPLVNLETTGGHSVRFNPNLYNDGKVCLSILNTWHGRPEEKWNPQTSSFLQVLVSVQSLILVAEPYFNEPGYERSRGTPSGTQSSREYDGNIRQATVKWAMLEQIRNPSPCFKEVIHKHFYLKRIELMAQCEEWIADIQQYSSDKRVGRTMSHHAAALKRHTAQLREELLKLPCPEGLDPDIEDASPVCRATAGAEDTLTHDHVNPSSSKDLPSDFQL

No constants are given. Whether binding was seen depends on the method and setting. In cells and extracts the contact can be indirect. Some results given as binding are weak or reduced against the parent protein; the word gives no strength.

B1: Syntaxin 17 (protein, UniProt Q9D0I4 1-301)
chain: MSEDEEKVKLRRLEPAIQKFTKIVIPTDLERLRKHQINIEKYQRCRIWDKLHEEHINAGRTVQQLRSNIREMEKLCLKVHKDDLVLLKRMIDPVKEAAATATAEFLQLHLESVEELKKQVNDEELLQPSLTRSTTVDGVLHTGEAEAASQSLTQIYALPEIPQDQNAAESWETLEADLIELSHLVTDMSLLVSSQQEKIDSIADHVNSAAVNVEEGTKNLQKAAKYKLAALPVAGALIGGVVGGPIGLLAGFKVAGIAAALGGGVLGFTGGKLIQRRKQKMMEKLTSSCPDLPSQSDKKRS
In the case of B1, the binding result was “binds”.

These data come from publication PMC8342531.
